PubChem BioAssay AID720505, Drosophila RNAi Screening Center, 2013
Assay: 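Fly regulators or components of the CRAC channel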 (primary screen). Cells: Drosophila S2R+ cells. Reagents: long dsRNA against Drosophila genes. Conditions: thapsigargin (2 µM) in calcium-free buffer to empty internal stores, then 2 mM calcium added back. Detection: 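Fluo-4 signal in 384-well plates read on a FLIPR after thapsigargin (2 µM, calcium-free) store depletion and 2 mM calcium add-back; unnormalised mean endpoint per well; screen run twice, selected wells retested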. Direction: calcium signal and retest calcium signal: higher = more calcium entry after store depletion. Rule for the call: 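About 1500 genes called as lowering calcium entry, by varying amounts, judged against per-plate control wells with STIM1 as positive and Rho1 as negative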. Calls: active = called as lowering calcium entry; inactive = not called.
The deposit covers about 20,000 reagents; this is an unselected part of those that have a named target and a result. Of all reagents, about 2,100 (10%) are marked active. 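Raw plate signals without normalisation; calls rest on control-based scores that were not deposited; replicate 2 separates called from uncalled poorly.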 Names joined by + are all predicted targets of the reagent. The record does not give: the amount of reagent, the time to read-out.

target | dsRNA | calcium signal, replicate 1 | calcium signal, replicate 2 | retest calcium signal, replicate 1 | retest calcium signal, replicate 2 | Outcome
ewg (erect wing) | DRSC18773 | 105 | 131 | 104 | 89.6 | inactive
Tim17a1 | DRSC14184 | 137 | 132 | – | – | inactive
Itgbn (Integrin betanu subunit) | DRSC03493 | 174 | 118 | – | – | inactive
Act88F (Actin 88F) | DRSC14105 | 85.6 | 82.7 | – | – | inactive
AgmNAT (Agmatine N-acetyltransferase) | DRSC18072 | 156 | 124 | – | – | inactive
zf30C (zinc finger protein 30C) | DRSC03641 | 106 | 115 | – | – | inactive
Tbcb (Tubulin-binding cofactor B) | DRSC06067 | 161 | 113 | – | – | inactive
CG13700 | DRSC10049 | 90.7 | 174 | – | – | inactive
Daao1 (D-amino acid oxidase 1) | DRSC06131 | 149 | 165 | – | – | inactive
CG30376 | DRSC05086 | 92 | 108 | – | – | inactive
CG6785 | DRSC02993 | 114 | 72 | – | – | inactive
CG8272 | DRSC07134 | 140 | 135 | – | – | inactive
lms (lateral muscles scarcer) | DRSC06387 | 77.1 | 123 | – | – | inactive
Muc91C (Mucin 91C) | DRSC16297 | 177 | 163 | – | – | inactive
Muc91C (Mucin 91C) | DRSC21696 | 48.2 | 96.2 | – | – | active
CG1789 | DRSC18140 | 110 | 99.1 | – | – | inactive
CG31457 | DRSC22935 | 92.2 | 163 | – | – | inactive
l(3)psg2 (lethal (3) persistent salivary gland 2) | DRSC10484 | 76.1 | 110 | – | – | inactive
Rcc1 (Regulator of chromosome condensation 1) | DRSC09684 | 59.8 | 105 | – | – | active
CG33060 | DRSC09939 | 88.7 | 100 | – | – | inactive
Act87E (Actin 87E) | DRSC22578 | 113 | 183 | – | – | inactive
Rpn13R (Regulatory particle non-ATPase 13-related) | DRSC18404 | 239 | 80.9 | – | – | inactive
blp (black pearl) | DRSC15757 | 155 | 200 | – | – | inactive
CG10384 | DRSC03933 | 129 | 7700 | – | – | inactive
CG10384 | DRSC04067 | 65.4 | 137 | – | – | active
qsm (quasimodo) | DRSC05896 | 127 | 99.7 | – | – | inactive
qsm (quasimodo) | DRSC06393 | 86.4 | 87.8 | – | – | inactive
Dnaaf3 (Dynein axonemal assembly factor 3) | DRSC06684 | 177 | 260 | – | – | inactive
Polr3K + Tcs1 | DRSC05988 | 127 | 118 | – | – | inactive
CR12798 (pseudo) | DRSC21078 | 130 | 89.6 | – | – | inactive
Ptp10D (Protein tyrosine phosphatase 10D) | DRSC20272 | 133 | 92.9 | – | – | inactive
CG33144 | DRSC06132 | 144 | 102 | – | – | inactive
CG33144 | DRSC07024 | 118 | 178 | – | – | inactive
Idh (Isocitrate dehydrogenase) | DRSC10779 | 84.8 | 112 | – | – | inactive
Pal1 (Peptidyl-alpha-hydroxyglycine-alpha-amidating lyase 1) | DRSC06106 | 214 | 215 | – | – | inactive
DIP-kappa (Dpr-interacting protein kappa) | DRSC01336 | 203 | 87.8 | – | – | inactive
DIP-kappa (Dpr-interacting protein kappa) | DRSC01337 | 174 | 98 | – | – | inactive
Gr93c (Gustatory receptor 93c) | DRSC14587 | 237 | 180 | – | – | inactive
UGP + PGRP-LF | DRSC10418 | 100 | 117 | – | – | inactive
CG31524 | DRSC22014 | 91.1 | 130 | – | – | inactive
CG33287 | DRSC22929 | 117 | 187 | – | – | inactive
CG18420 | DRSC01954 | 83.3 | 94.4 | – | – | inactive
speck | DRSC04608 | 70 | 172 | – | – | active
CG11300 | DRSC04104 | 110 | 254 | – | – | inactive
CG3739 | DRSC15510 | 238 | 174 | – | – | inactive
ImpE1 (Ecdysone-inducible gene E1) | DRSC11195 | 84.6 | 44.8 | – | – | inactive
ImpE1 (Ecdysone-inducible gene E1) | DRSC11196 | 97.7 | 87.3 | – | – | inactive
Gyf (Gigyf) | DRSC17202 | 114 | 132 | – | – | inactive
Cht9 (Chitinase 9) | DRSC04079 | 131 | 114 | – | – | inactive
EMC3 (ER membrane protein complex subunit 3) | DRSC02989 | 112 | 98.8 | – | – | inactive
CG33111 | DRSC14208 | 180 | 129 | – | – | inactive
CG33111 | DRSC14444 | 172 | 149 | – | – | inactive
Stlk (Ste20-like kinase) | DRSC22687 | 63.2 | 122 | – | – | inactive
Rh2 (Rhodopsin 2) | DRSC16821 | 194 | 98.4 | – | – | inactive
CkIIalpha-i3 (CKII-alpha subunit interactor-3) | DRSC08651 | 54 | 133 | – | – | active
Inx5 (Innexin 5) | DRSC20051 | 151 | 113 | – | – | inactive
CG14492 | DRSC06463 | 171 | 124 | – | – | inactive
CG31826 | DRSC03357 | 107 | 167 | – | – | inactive
bs (blistered) | DRSC04676 | 41.1 | 109 | 194 | 71.4 | active
bs (blistered) | DRSC23068 | 110 | 79.4 | – | – | inactive
HERC2 (HECT and RLD domain containing protein 2) | DRSC20566 | 119 | 125 | – | – | inactive
Acox3 (Acyl-CoA oxidase 3) | DRSC03251 | 93.7 | 106 | – | – | inactive
AANATL2 (Arylalkylamine N-acetyltransferase-like 2) | DRSC03227 | 192 | 87.5 | – | – | inactive
WRNexo (WRN exonuclease) | DRSC16278 | 195 | 308 | – | – | inactive
Polr2E (RNA polymerase II, I and III subunit E) | DRSC06100 | 75.3 | 84.4 | – | – | inactive
CG5386 | DRSC15788 | 188 | 160 | – | – | inactive
CG15373 | DRSC19663 | 89.9 | 143 | – | – | inactive
jdp | DRSC16975 | 103 | 184 | – | – | inactive
CG10801 | DRSC17761 | 99.7 | 89.6 | – | – | inactive
St3 (Sulfotransferase 3) | DRSC04098 | 87.5 | 147 | – | – | inactive
St3 (Sulfotransferase 3) | DRSC04505 | 146 | 104 | – | – | inactive
spaw (spacewatch) | DRSC06824 | 116 | 139 | – | – | inactive
CAH1 + Adat1 | DRSC02009 | 78.3 | 126 | – | – | inactive
Pms2 | DRSC07511 | 97.4 | 118 | – | – | inactive
CG17712 | DRSC00266 | 97.9 | 295 | – | – | inactive
CG30281 | DRSC04528 | 137 | 86.3 | – | – | inactive
gol (goliath) | DRSC04689 | 86.9 | 80.2 | – | – | inactive
CG31418 | DRSC21780 | 129 | 103 | – | – | inactive
metro (menage a trois) | DRSC06341 | 121 | 150 | – | – | inactive
metro (menage a trois) | DRSC06725 | 80.6 | 141 | – | – | inactive
CG34435 | DRSC18086 | 130 | 94.7 | – | – | inactive
mRpS22 (mitochondrial ribosomal protein S22) | DRSC14488 | 87.5 | 106 | – | – | inactive
eIF4H2 (eukaryotic translation initiation factor 4H2) | DRSC14582 | 109 | 163 | – | – | inactive

Called active (from the list above):
target | dsRNA | calcium signal, replicate 1 | calcium signal, replicate 2 | retest calcium signal, replicate 1 | retest calcium signal, replicate 2 | Outcome
Muc91C (Mucin 91C) | DRSC21696 | 48.2 | 96.2 | – | – | active
Rcc1 (Regulator of chromosome condensation 1) | DRSC09684 | 59.8 | 105 | – | – | active
CG10384 | DRSC04067 | 65.4 | 137 | – | – | active
speck | DRSC04608 | 70 | 172 | – | – | active
CkIIalpha-i3 (CKII-alpha subunit interactor-3) | DRSC08651 | 54 | 133 | – | – | active
bs (blistered) | DRSC04676 | 41.1 | 109 | 194 | 71.4 | active
